# Results: PubChem BioAssay AID1567 (National Center for Advancing Translational Sciences (NCATS), 2009)
# The chains behind the UniProt entries cited, without tags or fusion partners. Where a name states a change or a piece, a line headed by the entry shows the natural chain unless it says otherwise.
# UniProt P10828: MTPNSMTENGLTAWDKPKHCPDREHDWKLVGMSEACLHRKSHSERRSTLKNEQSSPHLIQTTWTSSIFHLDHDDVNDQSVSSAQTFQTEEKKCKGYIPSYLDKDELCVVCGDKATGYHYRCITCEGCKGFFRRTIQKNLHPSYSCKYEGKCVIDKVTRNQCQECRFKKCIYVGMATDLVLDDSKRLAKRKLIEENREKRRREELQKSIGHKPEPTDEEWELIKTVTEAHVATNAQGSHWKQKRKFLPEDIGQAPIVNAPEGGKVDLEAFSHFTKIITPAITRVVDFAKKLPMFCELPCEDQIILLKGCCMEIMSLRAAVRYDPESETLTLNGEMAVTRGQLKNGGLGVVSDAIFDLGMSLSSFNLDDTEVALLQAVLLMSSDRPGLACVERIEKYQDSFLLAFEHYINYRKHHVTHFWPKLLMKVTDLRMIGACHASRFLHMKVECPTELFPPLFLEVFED
# The inconclusive results got no clear call from the source; some entries with a clear call stand among them for comparison. Potencies of inconclusive entries are doubtful fits and often do not repeat. Activity calls are given as the source filed them. Calls come from the whole dose curve; as a rule, active = well fitted inhibition curve with a large enough effect; inconclusive = small, poorly fitted or top-dose-only effect, or effect the other way; inactive = no such curve, though single readings can be large or run the other way.
# Target: Thyroid hormone receptor beta (Homo sapiens) (UniProt P10828)
# Assay: Cell-based Gene Reporter Secondary Assay to Characterize qHTS Inhibitors of the Interaction of Thyroid Hormone Receptor and Steroid Receptor Coregulator 2
# Settings: WRO cells TRbeta TRE-luciferase, T3-stimulated, 16 h; series mostly up to 29.9 µM
# From the text: NIH Molecular Libraries Probe Production Network [MLPCN] NIH Chemical Genomics Center [NCGC] MLPCN Grant: DK058080 Assay Provider: R. Kip Guy, St. Jude Children's Research Hospital NCGC Assay Overview: Thyroid receptor (TR) regulates many homeostatic processes including basal metabolism, cardiovascular function, body weight, and lipid trafficking. TR modulators are potential therapeutics for obesity and hyperlipidemias but current thyroid analogs have undesirable side effects, particularly cardiac stimulation. This secondary assay characterized selected actives identified in the qHTS for Inhibitors of the Interaction of Thyroid Hormone Receptor and Steroid Receptor Coregulator 2. The human follicular thyroid carcinoma cell line WRO (kindly provided by Dr. M. D. Ringel) stably expresses TRbeta and a luciferase reporter gene fused to TR response element. The addition of T3 ligand elevates expression of the TRE luciferase reporter. This assay measures the transcriptional activity of compounds.
# NCGC Assay Protocol Summary: Cells were maintained in RPMI 1640 culture medium supplemented with 10% heat-inactivated FBS, 0.33 mg/ml hygromycin, 0.33 mg/ml geneticin, 50 units/ml penicillin, 50 ug/ml streptomycin. Cells were harvested and resuspended at 330,000 cells/ml in assay medium (50% DMEM 50% F-12 medium without Phenol-Red (Cellgro #16-405-CV), L-glutamine, 10% heat inactivated and charcoal treated FBS, 100 uM non-essential amino acid, 50 units/ml penicillin, 50 ug/ml streptomycin). Cells were dispensed at 10,000 cells/30 ul/well into 384 well plates (Corning 3917) and incubated 12 h at 37 C and 5% CO2. Compounds and T3 (100nM final concentration) were added using a pin tool and plates were incubated 16 h incubation at 37 C and 5% CO2. Following incubation, plates were equilibrated at ambient temperature for 30 min, 30 ul of Bright-Glo (Promega) was added and luminescence was detected by an EnVision (PerkinElmer).
row,Structure (SMILES),Potency
1,C=CC(=O)OCCOc1ccccc1,"inconclusive: 79.4 µM [inhibitor, partial curve, poor fit]"
2,Cn1c(=O)[nH]c2nnc(-c3ccc(Cl)c(Cl)c3)nc2c1=O,"inconclusive: 0.355 µM [inhibitor, full curve]"
3,O=C(NNc1cc(N2CCOCC2)nc(N2CCOCC2)n1)c1ccc([N+](=O)[O-])cc1,inactive
4,CCN(CC)S(=O)(=O)c1cccc(N=NC2=C(O)CCCC2=O)c1,"inconclusive: 2.51 µM [activator, full curve, poor fit]"
5,CCc1ccc2c(c1)c1nc(C)sc1n2CC,inactive
6,CC1=NN(c2ccc(F)cc2)C(=O)C1C(c1cccc(O)c1)c1c(C)[nH]n(-c2ccc(F)cc2)c1=O (stereo not given),inactive
7,CCSc1ncc(Cl)c(C(=O)Nc2nc3ccc(OC)cc3s2)n1,inactive
8,CCCCCCN=CC1=C(O)CC(C)(C)CC1=O,"inconclusive: 3.55 µM [activator, full curve, poor fit]"
9,CCC(NC(=O)Nc1ccc(O)cc1)(C(F)(F)F)C(F)(F)F,inactive
10,C/C(=C\C(=O)c1ccccc1)Nc1ccc(O)cc1,"inconclusive: 8.91 µM [activator, full curve]"
11,CCC(C)NC(=O)COC(=O)c1csc2c1CCCC2 (stereo not given),"inconclusive: 1.41 µM [activator, full curve, poor fit]"
12,Nc1cc(N)c(OCC(F)(F)F)cc1OCC(F)(F)F,"inconclusive: 8.91 µM [activator, partial curve]"
13,CN(C)c1cc(Cl)c2nonc2c1N,inactive
14,Nc1c(C(=O)NCc2ccco2)c2nc3ccccc3nc2n1CCc1ccccc1,"inconclusive: 8.91 µM [activator, partial curve]"
15,Cc1c(C#N)c(O)n(CCO)c(=O)c1N=Nc1ccc2c(c1)COC2=O,"inconclusive: 0.891 µM [activator, full curve]"
16,COc1ccc2nc3cccc(OC)c3nc2c1,"inconclusive: 0.631 µM [activator, partial curve, poor fit]"
17,COc1ccc(C(=O)Oc2ccc(C(c3c(C)[nH][nH]c3=O)c3c(C)[nH][nH]c3=O)cc2OC)cc1,"inconclusive: 39.8 µM [activator, partial curve, poor fit]"
18,COc1cc(NC(C)CCCN)c2ncccc2c1 (stereo not given),active: 22.4 µM
19,Nc1cc(-c2ccncc2)c[nH]c1=O,active: 14.1 µM
20,CS(=O)(=O)c1ccc(C(=O)OCC(=O)NC(=O)C2CCCCC2)cc1[N+](=O)[O-],"inconclusive: 1.41 µM [activator, full curve]"

row,Structure (SMILES),Potency
1,Cc1ccc(OC(=S)Nc2ccc(O)cc2)cc1,inactive
2,C=CCSc1nnc2n(-c3ccccc3OC)c(=O)c3c4c(sc3n12)CCC4,inactive
3,CCOc1cc(C(c2c(C)[nH][nH]c2=O)c2c(C)[nH][nH]c2=O)ccc1OS(=O)(=O)c1ccc(C)cc1,inactive
4,CCOc1ccc(NC(=O)C(c2ccccn2)N(C(=O)CCl)c2ccc(F)cc2)cc1 (stereo not given),inactive
5,O=C(O)[C@H]1CN(CCCP(=O)(O)O)CCN1,inactive
6,Cc1cc2c(NC(=O)Nc3ccccc3)cccc2nn1,"inconclusive: 11.2 µM [inhibitor, partial curve]"
7,COc1ccc(CN2C(=O)Cc3c2nc(N)c2c(N)nc(N4CCCCC4)c(C#N)c32)cc1,"inconclusive: 8.91 µM [activator, full curve]"
8,COc1cc(/C=C(\C#N)C(=O)NCC2CCCO2)ccc1OCCC(C)C (stereo not given),"inconclusive: 22.4 µM [inhibitor, single point]"
9,Cc1ccc2c(CC(=O)Nc3c(C(=O)c4ccc(F)cc4)oc4ccccc34)coc2c1C,inactive
10,CCOc1ccc(C2=Cc3cc(OC)c(OC)cc3C(=C(Cl)Cl)O2)cc1,"inconclusive: 10 µM [activator, partial curve]"
11,Cc1cc2ccccc2n1CCNC(=O)C(C)Oc1ccccc1 (stereo not given),"inconclusive: 3.98 µM [inhibitor, partial curve, poor fit]"
12,CCOc1cc(C(c2c(C)[nH][nH]c2=O)c2c(C)[nH][nH]c2=O)ccc1OC(=O)c1cccc([N+](=O)[O-])c1,"inconclusive: 1.12 µM [activator, full curve, poor fit]"
13,CCOc1cc(N2CCOCC2)c(OCC)cc1NC(C)C(=O)N1CCN(CC)CC1 (stereo not given),inactive
14,Cc1[nH][nH]c(=O)c1C(c1ccc(-c2ccccc2C(=O)O)o1)c1c(C)[nH][nH]c1=O,"inconclusive: 3.98 µM [activator, full curve]"
15,N/C(Cc1cccc2ccccc12)=N\OC(=O)c1cccs1,"inconclusive: 25.1 µM [activator, single point]"
16,CCCCOc1ccc(C(=O)CCN2CCCCC2)cc1,"inconclusive: 11.2 µM [activator, single point]"
17,O=C(Nc1nc2ccc(Cl)cc2s1)c1ccc(N2CCCCC2)c([N+](=O)[O-])c1,inactive
18,CC1(C)C(N(O)C(=O)Nc2ccc(Cl)cc2)N(c2ccc(Cl)cc2)C(=O)N1CC(=O)NN (stereo not given),"inconclusive: 0.0316 µM [activator, full curve, poor fit]"
19,O=c1[nH]c(Nc2ccc(F)cc2)cc2ccccc12,"inconclusive: 11.2 µM [activator, full curve, poor fit]"
20,O=C(/C=C/c1ccco1)NC(=S)Nc1cc(C(F)(F)F)ccc1N1CCOCC1,"inconclusive: 15.8 µM [inhibitor, partial curve]"

# Arranged by count of non-hydrogen atoms (ascending): part of the list above.
row,Structure (SMILES),Potency
1,Cc1ccc(OC(=S)Nc2ccc(O)cc2)cc1,inactive
15,N/C(Cc1cccc2ccccc12)=N\OC(=O)c1cccs1,"inconclusive: 25.1 µM [activator, single point]"
20,O=C(/C=C/c1ccco1)NC(=S)Nc1cc(C(F)(F)F)ccc1N1CCOCC1,"inconclusive: 15.8 µM [inhibitor, partial curve]"
